Laboratory results taken from the supplement of paper PMC3334620.
Whole data set: some 33,000 sequences, median “E-score (-0.5 to 0.5)” near -0.0014, cut for the highest 2% near 0.25. This is one part of the list.

molecular target: T1, Cad1 (UniProt P24813); experiment: PBM E-score (8-mer binding enrichment) (E-score (-0.5 to 0.5)); higher = stronger / more preferred TF binding; conditions: protein concentration: 100 nM; construct: GST-full length
T1 sequence: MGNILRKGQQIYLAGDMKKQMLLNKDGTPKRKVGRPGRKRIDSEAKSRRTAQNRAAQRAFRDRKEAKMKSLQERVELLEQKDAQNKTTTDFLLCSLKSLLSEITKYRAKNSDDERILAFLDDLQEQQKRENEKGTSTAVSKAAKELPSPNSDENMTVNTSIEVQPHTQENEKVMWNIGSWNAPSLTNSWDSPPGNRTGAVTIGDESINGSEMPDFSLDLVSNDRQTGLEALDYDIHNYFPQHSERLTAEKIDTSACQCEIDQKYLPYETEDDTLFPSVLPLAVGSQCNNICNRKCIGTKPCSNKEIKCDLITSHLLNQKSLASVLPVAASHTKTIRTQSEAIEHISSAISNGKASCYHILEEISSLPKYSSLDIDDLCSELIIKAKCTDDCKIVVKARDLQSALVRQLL
How it was run: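 Each ungapped eight-base word and its reverse complement, pooled, received an E-score from the Universal PBM Analysis Suite. Underlying scans, normalised with masliner, recorded fluorescent anti-GST bound to GST-tagged yeast transcription factors. These were applied at about 100-200 nM to universal all-10-mer Agilent arrays double-stranded by primer extension.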

| Sequence | PBM E-score |
| --- | --- |
| ATCAAGTA | 0.0178 |
| ACAATCTG | 0.0274 |
| CCATACGA | -0.0587 |
| AGTATGTA | -0.145 |
| AGCTGGAC | 0.00162 |
| AAAACTAC | 0.0885 |
| GACTCTGC | -0.0916 |
| GGAATGTA | 0.111 |
| CTACCTAA | 0.0375 |
| AACAGGAT | -0.148 |
| CTTTGGCA | -0.304 |
| GGGCCAAC | -0.225 |
| AAAAGGAA | -0.138 |
| ACCGGACC | -0.00801 |
| CCAATGTC | -0.0465 |
| CATGTGAA | -0.0545 |
| CATGGCTC | -0.0206 |
| GGTCAAAA | 0.124 |
| CCCAGGGC | -0.287 |
| GAAGACTA | 0.0459 |
| GATGGCCC | -0.218 |
| GATAACAA | 0.165 |
| ACTAACGG | 0.0812 |
| ATGGCGTA | -0.108 |
| GCTACTTA | -0.191 |

| Sequence | PBM E-score |
| --- | --- |
| CTACTCCA | -0.143 |
| GACTGAGA | 0.0552 |
| ACTCGCCT | -0.181 |
| CATGGTGA | -0.0761 |
| GCGTCCCC | -0.27 |
| AGGGTGGC | -0.0635 |
| CGCTCGAG | 0.159 |
| CTCCACGC | -0.114 |
| CCCTAGTA | -0.0741 |
| ACCGACCT | -0.122 |
| AGATGCTC | 0.054 |
| CAGTGGCG | -0.0554 |
| GTAGGCCA | -0.024 |
| CGTCCCAG | -0.129 |
| ACGTGTTG | 0.134 |
| ACCGATGG | -0.143 |
| AGCTATAC | -0.0476 |
| GAAGTTGC | -0.255 |
| CGACATAA | 0.222 |
| CTCGCAGC | 0.0776 |
| GAGGGATC | -0.185 |
| GAAGTTTA | 0.138 |
| AGTCGGCG | 0.0599 |
| ACTCGTGC | -0.112 |
| TAAGCAGA | 0.143 |

| Sequence | PBM E-score |
| --- | --- |
| CCAACGCA | 0.0411 |
| ACCTTAGT | -0.0801 |
| CCCAACGA | 0.0341 |
| GACGACTC | -0.102 |
| AGGACTCA | -0.0986 |
| AACCTGAC | 0.0197 |
| AGACCTCA | -0.117 |
| AGCTGAAA | 0.135 |
| AATGTCCT | -0.0961 |
| ATGGCTCA | -0.0443 |
| AGGTACTC | -0.0795 |
| ACCTGCGG | -0.0391 |
| CACGATCA | 0.0828 |
| CGCATGCC | 0.252 |
| TCATCGGA | 0.232 |
| TCGGGGCA | -0.258 |
| ACATTTTC | 0.177 |
| GACCTCCC | -0.247 |
| CGCTAACC | -0.0668 |
| TAGGATAA | 0.0906 |
| ATCGTCAC | 0.148 |
| GTGCTTAA | 0.155 |
| CCAGAAGG | -0.0726 |
| ACAACTAA | 0.246 |
| ACTGACAA | 0.264 |

| Sequence | PBM E-score |
| --- | --- |
| GCAAGTCA | -0.0574 |
| GGACATGA | -0.0277 |
| ATCCTAAA | -0.12 |
| ACCTAATA | 0.137 |
| AAGACGCA | -0.00656 |
| AGTTTTAG | 0.0658 |
| GTTACTTA | -0.0383 |
| GCGCCCGA | 0.0517 |
| TAGCGACA | 0.0174 |
| CACCAGAG | -0.111 |
| AGCTCCAC | -0.0867 |
| AAATAAGG | 0.0586 |
| GGTATAAC | -0.183 |
| ATCGGCGC | 0.0663 |
| ACGCCTCA | -0.115 |
| GCATTAAC | 0.0922 |
| AGGAAGAC | -0.243 |
| ACACGATG | -0.0224 |
| TAGATGGA | -0.181 |
| GAGTCCGC | -0.377 |
| CACGGAAA | 0.13 |
| ATCACAAT | 0.21 |
| TCCACGCA | 0.028 |
| ACGTGACG | 0.0862 |
| CTAGCAAC | 0.0306 |

Exported with tabs: part of the list above
Sequence	PBM E-score
CGCATGCC	0.252
TCATCGGA	0.232
TCGGGGCA	-0.258
ACATTTTC	0.177
GACCTCCC	-0.247
CGCTAACC	-0.0668
TAGGATAA	0.0906
ATCGTCAC	0.148
GTGCTTAA	0.155
CCAGAAGG	-0.0726
ACAACTAA	0.246
ACTGACAA	0.264
GCAAGTCA	-0.0574
GGACATGA	-0.0277
ATCCTAAA	-0.12
ACCTAATA	0.137
AAGACGCA	-0.00656
AGTTTTAG	0.0658
GTTACTTA	-0.0383
GCGCCCGA	0.0517
TAGCGACA	0.0174
CACCAGAG	-0.111
AGCTCCAC	-0.0867
AAATAAGG	0.0586
GGTATAAC	-0.183
ATCGGCGC	0.0663
ACGCCTCA	-0.115
GCATTAAC	0.0922
AGGAAGAC	-0.243
ACACGATG	-0.0224
TAGATGGA	-0.181
GAGTCCGC	-0.377
CACGGAAA	0.13
ATCACAAT	0.21
TCCACGCA	0.028

Following part.

| Sequence | PBM E-score |
| --- | --- |
| GGACGCAC | 0.0124 |
| GTAGAATA | 0.106 |
| CAGCTCGG | 0.00696 |
| ACACGAAT | 0.0874 |
| GTATCGGA | -0.00518 |
| ACTACCGA | -0.25 |
| ATTCCGCG | 0.185 |
| AATATGAA | -0.00421 |
| CTGCCTGA | 0.143 |
| AAGCCAGA | -0.0133 |
| AACCTAAT | -0.0437 |
| CCTCCTAG | -0.099 |
| AGGACTGG | -0.18 |
| GTGACATA | 0.141 |
| CTCCAGAG | -0.14 |
| GGTCGCGA | 0.273 |
| AGGGTGCC | -0.285 |
| ATAGTCAA | 0.0661 |
| ACCAAGGG | -0.0668 |
| AATTCAAA | 0.0368 |
| GGGTGTAA | 0.0367 |
| CACAAAGG | -0.0708 |
| AGCAGACA | -0.0116 |
| ACGGACAT | 0.177 |
| CCCACTGA | -0.211 |

| Sequence | PBM E-score |
| --- | --- |
| CCCAGTCC | -0.134 |
| CCACAGCC | -0.135 |
| GAATAGTA | 0.144 |
| CGTATCCA | -0.00514 |
| GAAATGTC | -0.0459 |
| AAGATTGA | -0.0377 |
| AGTAAATC | 0.146 |
| GGATAAGA | 0.0616 |
| AACACGCC | 0.0503 |
| CACTCCCG | -0.139 |
| CGGACAAG | 0.219 |
| CAAACCCA | 0.114 |
| GAGCGACC | -0.0877 |
| CTAAGAAG | 0.0716 |
| ATCGTCAA | 0.111 |
| CACCTTAG | -0.05 |
| ATCGTTGA | 0.101 |
| AGCATTAG | 0.0185 |
| AAACGGTA | 0.0684 |
| CTCTCTGC | -0.139 |
| ACCCACGT | 0.0506 |
| GCTCTTTA | -0.0317 |
| ACATTTAT | 0.0966 |
| ATGACGAG | -0.07 |
| ATAAATGG | 0.0507 |

Fetched one by one from the list above (4):

| Sequence | PBM E-score |
| --- | --- |
| ATGACGAG | -0.07 |
| CACTCCCG | -0.139 |
| CGTATCCA | -0.00514 |
| GAATAGTA | 0.144 |

(further entries)

| Sequence | PBM E-score |
| --- | --- |
| CGGGATTA | 0.18 |
| ACGGACTC | -0.0126 |
| GCAACCCC | -0.306 |
| ACTGAGAA | -0.0562 |
| TGTGTTAA | 0.19 |
| AGTGCGAC | -0.0305 |
| CGAAAGAA | 0.00206 |
| AGCGAGGG | -0.271 |
| ACCCGAGG | -0.0532 |
| TACTGGGA | -0.0182 |
| CTCGTTGC | 0.11 |
| CCATTATA | 0.134 |
| ATGGTTTA | -0.004 |
| GCAGGAAC | 0.0566 |
| CTATGACA | 0.17 |
| CGCGTTCA | 0.225 |
| ATACATGC | -0.151 |
| CATGCCGG | 0.138 |
| GTACAACA | 0.116 |
| GTACACAA | 0.143 |
| AACAGAAA | 0.0872 |
| ACGATGGC | 0.0456 |
